Reference: PMC10080907

By UniProt entry, the sequences of proteins in these tests, tags left out. Where a name states a change or a piece, a line headed by the entry shows the natural chain unless it says otherwise.
UniProt I7MFN1: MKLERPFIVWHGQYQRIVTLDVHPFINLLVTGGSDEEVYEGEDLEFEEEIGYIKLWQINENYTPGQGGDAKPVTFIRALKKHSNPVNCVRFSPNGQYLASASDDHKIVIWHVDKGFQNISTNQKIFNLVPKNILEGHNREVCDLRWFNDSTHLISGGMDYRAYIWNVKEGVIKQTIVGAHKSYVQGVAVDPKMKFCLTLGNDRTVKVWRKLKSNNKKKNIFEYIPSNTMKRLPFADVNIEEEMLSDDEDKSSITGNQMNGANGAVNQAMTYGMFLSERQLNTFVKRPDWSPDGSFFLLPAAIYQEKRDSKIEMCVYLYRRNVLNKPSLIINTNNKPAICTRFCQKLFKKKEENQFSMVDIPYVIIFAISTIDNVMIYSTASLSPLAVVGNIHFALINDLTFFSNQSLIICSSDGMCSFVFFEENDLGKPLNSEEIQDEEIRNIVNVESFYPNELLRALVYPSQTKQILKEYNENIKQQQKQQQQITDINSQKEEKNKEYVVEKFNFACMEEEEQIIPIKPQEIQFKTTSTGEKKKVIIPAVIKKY
UniProt I7M490: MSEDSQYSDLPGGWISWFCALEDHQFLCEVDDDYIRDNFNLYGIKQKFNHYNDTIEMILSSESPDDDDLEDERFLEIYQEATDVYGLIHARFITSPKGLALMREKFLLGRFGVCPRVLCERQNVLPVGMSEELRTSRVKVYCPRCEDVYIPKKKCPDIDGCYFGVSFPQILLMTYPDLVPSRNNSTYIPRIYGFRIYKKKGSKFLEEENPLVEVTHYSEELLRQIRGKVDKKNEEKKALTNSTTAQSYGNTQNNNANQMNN
UniProt Q24HK6: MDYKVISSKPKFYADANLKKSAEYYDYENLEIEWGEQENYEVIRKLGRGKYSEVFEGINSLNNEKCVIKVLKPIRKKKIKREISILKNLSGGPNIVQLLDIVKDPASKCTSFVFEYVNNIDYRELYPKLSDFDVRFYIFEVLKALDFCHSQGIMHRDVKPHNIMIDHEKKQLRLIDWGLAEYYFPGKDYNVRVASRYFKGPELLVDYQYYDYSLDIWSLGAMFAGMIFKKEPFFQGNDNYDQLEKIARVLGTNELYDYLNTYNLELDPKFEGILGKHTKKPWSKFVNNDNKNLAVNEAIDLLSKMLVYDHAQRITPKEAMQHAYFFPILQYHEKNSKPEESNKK
UniProt Q229R6: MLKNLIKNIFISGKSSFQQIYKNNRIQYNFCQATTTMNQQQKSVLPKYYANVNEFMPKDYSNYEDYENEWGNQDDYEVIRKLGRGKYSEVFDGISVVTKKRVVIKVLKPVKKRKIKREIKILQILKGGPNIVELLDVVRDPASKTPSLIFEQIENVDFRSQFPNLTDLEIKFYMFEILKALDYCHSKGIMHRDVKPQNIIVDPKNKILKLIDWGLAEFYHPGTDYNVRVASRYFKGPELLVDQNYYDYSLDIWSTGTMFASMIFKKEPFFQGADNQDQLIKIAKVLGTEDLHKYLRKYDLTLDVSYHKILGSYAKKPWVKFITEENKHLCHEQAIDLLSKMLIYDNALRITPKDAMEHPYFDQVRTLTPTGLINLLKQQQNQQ

Target: Cac2^Tt-FZZ (Tetrahymena thermophila) (UniProt I7MFN1)
Test: affinity purification with mass spectrometry; tandem affinity purification of the FZZ-tagged bait from Benzonase-treated whole cell extracts of growing Tetrahymena (IgG-Sepharose 4 h at 4 °C, TEV protease overnight, then M2 agarose); SAINTexpress, FDR ≤ 0.01 against untagged wildtype cells

| binding | Substance |
| --- | --- |
| binds | CSKB1 (TTHERM_00780530, putative regulatory beta subunit of Casein kinase II) (from UniProt I7M490) |
| binds | TTHERM_01000180 (putative Casein kinase II subunit, similar to budding yeast CSKA2) (from UniProt Q24HK6) |
| binds | TTHERM_01345800 (putative Casein kinase II subunit, similar to budding yeast CSKA1) (from UniProt Q229R6) |

No constants are given. Whether binding was seen depends on the method and setting. In cells and extracts the contact can be indirect. These calls come from enrichment with a bait or labelling near it, and not all partners need be listed.
